According to the supplement of paper PMC10849652:
Some of the results follow. Residues, ends and D or L forms follow the SMILES beside them. *: point of attachment. Cbz = O=C(OCc1ccccc1)*

The chains behind the UniProt entries cited, without tags or fusion partners. Where a name states a change or a piece, a line headed by the entry shows the natural chain unless it says otherwise.
UniProt P49281: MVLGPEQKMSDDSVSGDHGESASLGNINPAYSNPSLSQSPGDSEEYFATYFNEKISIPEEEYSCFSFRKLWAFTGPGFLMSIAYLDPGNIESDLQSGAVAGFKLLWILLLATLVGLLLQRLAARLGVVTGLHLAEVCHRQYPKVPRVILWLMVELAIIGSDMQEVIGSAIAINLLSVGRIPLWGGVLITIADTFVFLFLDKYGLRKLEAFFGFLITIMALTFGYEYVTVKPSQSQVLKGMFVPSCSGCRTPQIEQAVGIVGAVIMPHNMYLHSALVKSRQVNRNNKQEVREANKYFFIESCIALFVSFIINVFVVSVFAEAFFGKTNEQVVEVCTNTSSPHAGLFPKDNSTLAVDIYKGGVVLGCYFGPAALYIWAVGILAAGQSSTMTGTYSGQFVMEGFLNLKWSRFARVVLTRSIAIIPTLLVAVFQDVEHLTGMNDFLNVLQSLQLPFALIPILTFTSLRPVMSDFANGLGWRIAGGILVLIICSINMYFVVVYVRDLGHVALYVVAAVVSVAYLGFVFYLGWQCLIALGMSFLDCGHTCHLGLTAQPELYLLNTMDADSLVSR
UniProt Q8IXU6: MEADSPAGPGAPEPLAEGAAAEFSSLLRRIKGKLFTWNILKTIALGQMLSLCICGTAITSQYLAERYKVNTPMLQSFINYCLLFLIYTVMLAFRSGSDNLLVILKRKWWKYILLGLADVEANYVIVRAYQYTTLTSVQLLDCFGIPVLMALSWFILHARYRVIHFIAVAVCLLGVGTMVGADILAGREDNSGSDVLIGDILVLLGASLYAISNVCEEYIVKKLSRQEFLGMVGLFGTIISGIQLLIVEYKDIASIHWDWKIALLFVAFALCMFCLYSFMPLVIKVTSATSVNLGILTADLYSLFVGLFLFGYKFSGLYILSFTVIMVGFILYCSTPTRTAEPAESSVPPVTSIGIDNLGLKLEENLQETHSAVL
UniProt P30825: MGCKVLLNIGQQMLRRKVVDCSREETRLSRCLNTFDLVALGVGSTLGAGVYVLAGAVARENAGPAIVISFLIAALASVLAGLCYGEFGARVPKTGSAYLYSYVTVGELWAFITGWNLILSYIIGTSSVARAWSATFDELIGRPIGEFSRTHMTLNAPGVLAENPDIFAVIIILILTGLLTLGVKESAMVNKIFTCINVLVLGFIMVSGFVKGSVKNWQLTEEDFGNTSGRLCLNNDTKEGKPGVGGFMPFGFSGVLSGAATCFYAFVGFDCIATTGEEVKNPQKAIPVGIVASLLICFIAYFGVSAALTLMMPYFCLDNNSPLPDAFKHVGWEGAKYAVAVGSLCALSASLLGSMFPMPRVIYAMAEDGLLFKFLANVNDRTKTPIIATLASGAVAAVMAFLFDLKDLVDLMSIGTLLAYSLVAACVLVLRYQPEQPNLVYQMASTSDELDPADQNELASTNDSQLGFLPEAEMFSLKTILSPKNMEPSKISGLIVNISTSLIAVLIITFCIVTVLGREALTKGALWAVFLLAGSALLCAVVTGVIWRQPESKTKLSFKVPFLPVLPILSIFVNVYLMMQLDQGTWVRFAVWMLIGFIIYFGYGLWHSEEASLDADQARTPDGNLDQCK
UniProt O43808: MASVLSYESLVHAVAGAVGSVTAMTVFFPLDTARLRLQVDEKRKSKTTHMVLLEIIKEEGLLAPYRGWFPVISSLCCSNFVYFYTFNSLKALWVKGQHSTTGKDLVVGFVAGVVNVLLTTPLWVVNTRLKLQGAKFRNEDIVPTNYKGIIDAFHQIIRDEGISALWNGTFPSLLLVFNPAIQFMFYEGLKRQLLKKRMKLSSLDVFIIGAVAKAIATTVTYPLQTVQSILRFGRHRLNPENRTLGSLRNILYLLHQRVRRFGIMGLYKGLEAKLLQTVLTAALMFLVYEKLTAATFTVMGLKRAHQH
UniProt O75746: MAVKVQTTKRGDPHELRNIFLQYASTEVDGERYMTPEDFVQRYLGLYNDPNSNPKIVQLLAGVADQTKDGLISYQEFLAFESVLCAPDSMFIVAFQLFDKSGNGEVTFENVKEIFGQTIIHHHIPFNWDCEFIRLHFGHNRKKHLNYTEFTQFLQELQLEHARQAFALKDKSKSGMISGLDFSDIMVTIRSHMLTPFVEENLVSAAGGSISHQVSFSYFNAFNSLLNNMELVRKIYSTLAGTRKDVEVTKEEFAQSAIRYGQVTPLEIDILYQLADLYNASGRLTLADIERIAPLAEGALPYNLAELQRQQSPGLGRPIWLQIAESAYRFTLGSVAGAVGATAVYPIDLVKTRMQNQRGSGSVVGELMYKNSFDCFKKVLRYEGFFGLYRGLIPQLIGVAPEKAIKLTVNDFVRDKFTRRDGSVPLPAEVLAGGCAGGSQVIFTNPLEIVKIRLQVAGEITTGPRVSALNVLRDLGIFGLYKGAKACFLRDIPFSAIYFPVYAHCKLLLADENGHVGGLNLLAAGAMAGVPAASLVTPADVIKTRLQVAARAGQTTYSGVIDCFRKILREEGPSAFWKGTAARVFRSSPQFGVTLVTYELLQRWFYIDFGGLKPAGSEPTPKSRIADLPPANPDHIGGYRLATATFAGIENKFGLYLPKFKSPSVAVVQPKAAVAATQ
UniProt Q9HC21: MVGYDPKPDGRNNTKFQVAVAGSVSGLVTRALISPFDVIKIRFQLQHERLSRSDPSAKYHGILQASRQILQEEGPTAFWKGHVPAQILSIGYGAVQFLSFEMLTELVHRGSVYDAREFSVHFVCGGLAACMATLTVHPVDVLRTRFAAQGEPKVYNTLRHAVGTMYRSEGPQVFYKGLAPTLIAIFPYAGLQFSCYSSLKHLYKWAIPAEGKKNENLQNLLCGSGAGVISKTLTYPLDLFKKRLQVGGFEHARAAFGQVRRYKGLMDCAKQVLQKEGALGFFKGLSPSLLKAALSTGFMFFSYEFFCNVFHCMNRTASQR
UniProt P53985: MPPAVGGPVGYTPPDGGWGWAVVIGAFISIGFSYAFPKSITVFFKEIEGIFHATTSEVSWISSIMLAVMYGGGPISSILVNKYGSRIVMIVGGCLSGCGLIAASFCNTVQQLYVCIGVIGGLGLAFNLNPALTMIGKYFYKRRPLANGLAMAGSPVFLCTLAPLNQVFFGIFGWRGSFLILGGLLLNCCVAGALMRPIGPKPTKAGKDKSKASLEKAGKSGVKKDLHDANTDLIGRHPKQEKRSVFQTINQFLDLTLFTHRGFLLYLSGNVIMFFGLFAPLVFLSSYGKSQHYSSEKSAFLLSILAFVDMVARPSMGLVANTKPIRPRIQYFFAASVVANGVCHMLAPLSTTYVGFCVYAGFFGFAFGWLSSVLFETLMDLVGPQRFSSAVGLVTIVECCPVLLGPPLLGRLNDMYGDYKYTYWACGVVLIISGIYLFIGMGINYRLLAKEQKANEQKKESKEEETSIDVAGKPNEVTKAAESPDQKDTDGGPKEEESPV
UniProt Q9NQQ7: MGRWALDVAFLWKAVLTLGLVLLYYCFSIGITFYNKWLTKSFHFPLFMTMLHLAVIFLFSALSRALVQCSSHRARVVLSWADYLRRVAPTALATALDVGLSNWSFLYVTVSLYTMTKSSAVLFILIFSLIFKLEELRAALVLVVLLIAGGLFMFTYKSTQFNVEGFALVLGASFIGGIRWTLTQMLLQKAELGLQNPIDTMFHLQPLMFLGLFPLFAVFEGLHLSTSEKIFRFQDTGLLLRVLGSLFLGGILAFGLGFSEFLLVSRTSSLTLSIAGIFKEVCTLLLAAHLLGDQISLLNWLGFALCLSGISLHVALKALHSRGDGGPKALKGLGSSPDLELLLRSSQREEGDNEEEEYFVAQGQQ
UniProt Q9BWU0: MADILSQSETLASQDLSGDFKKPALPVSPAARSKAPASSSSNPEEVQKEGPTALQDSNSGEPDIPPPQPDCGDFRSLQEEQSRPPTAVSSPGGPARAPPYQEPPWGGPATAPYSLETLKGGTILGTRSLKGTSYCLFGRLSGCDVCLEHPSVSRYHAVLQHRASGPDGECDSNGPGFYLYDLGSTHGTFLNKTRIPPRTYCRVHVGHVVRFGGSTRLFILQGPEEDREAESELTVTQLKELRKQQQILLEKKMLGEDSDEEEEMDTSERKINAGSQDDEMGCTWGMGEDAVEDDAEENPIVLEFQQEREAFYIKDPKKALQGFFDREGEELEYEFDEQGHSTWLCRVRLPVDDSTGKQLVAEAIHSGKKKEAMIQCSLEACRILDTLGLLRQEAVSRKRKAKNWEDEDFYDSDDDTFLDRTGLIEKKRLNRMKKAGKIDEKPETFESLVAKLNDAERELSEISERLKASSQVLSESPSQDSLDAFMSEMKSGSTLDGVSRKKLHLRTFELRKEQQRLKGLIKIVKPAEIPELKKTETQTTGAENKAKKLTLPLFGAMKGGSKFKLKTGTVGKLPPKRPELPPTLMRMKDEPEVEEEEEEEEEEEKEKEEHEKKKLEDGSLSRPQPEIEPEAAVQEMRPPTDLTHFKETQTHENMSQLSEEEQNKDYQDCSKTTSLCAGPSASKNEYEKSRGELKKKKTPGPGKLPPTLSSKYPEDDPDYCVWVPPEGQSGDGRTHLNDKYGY
UniProt P43007: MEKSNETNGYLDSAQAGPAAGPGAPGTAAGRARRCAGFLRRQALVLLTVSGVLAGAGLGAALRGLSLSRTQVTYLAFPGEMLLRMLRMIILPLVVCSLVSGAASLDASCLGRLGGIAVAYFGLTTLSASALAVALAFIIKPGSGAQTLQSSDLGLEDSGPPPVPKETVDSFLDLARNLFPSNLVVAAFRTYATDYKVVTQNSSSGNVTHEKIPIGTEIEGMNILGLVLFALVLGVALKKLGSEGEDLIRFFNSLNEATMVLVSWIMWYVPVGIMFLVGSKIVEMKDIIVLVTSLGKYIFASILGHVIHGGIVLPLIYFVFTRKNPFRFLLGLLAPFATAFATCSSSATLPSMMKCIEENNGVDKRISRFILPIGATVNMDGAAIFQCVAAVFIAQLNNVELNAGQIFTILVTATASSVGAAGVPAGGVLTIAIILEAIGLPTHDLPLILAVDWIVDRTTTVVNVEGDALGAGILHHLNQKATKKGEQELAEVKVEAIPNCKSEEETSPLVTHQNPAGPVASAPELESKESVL
UniProt Q00325: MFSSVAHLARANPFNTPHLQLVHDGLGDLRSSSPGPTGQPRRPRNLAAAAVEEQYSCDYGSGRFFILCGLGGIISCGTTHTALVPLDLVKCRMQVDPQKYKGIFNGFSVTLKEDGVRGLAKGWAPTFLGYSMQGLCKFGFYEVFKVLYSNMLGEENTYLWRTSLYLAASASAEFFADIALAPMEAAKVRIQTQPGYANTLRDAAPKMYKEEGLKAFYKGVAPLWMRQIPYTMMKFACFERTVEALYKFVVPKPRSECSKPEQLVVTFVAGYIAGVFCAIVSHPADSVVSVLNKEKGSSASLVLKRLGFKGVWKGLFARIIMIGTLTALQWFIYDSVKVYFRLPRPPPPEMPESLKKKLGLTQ
UniProt Q9HBR0: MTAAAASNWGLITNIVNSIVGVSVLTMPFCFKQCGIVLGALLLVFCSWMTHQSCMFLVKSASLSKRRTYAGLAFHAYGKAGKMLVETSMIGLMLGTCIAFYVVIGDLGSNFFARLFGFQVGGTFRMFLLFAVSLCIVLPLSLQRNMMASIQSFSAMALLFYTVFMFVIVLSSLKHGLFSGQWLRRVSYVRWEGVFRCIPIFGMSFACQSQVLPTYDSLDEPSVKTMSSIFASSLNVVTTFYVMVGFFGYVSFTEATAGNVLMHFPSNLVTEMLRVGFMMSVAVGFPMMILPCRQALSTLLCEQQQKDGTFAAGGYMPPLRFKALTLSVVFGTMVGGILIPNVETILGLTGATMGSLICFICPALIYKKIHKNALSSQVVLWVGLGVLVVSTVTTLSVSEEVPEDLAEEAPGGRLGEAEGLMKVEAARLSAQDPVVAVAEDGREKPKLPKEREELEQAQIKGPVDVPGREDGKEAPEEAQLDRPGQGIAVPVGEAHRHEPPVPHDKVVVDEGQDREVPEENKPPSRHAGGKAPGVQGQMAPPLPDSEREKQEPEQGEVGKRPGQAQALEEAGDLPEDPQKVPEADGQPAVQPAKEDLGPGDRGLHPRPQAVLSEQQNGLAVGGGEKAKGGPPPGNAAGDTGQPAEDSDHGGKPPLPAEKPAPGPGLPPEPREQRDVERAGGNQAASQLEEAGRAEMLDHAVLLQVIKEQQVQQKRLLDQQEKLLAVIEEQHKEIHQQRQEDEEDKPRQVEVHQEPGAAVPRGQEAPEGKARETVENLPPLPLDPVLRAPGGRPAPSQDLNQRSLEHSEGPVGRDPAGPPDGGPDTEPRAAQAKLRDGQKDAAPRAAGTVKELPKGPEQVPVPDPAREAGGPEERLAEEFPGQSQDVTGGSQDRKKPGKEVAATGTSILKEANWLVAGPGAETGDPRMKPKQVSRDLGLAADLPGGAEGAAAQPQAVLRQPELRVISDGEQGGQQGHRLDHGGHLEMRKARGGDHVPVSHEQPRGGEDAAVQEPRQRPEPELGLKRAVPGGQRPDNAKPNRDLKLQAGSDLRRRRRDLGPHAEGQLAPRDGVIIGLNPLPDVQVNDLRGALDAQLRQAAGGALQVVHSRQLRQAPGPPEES

Columns and labels:
Assay in all cases: log2 fold change, soluble protein after heating vs DMSO (PISA); higher = thermal stabilisation; K562 cells, 10 uM, 30 min; active = over 0.2 and 3.5 SD of the protein, either way, in both replicates (recomputed)
IRAK-1-4 Inhibitor I = compound: C1COCCN1CCN2C3=CC=CC=C3N=C2NC(=O)C4=CC(=CC=C4)[N+](=O)[O-] [IRAK-1-4 Inhibitor I]
Summary of the method: (§1)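 Aliquots of K562 cells (2×10^6 cells/mL) treated with 10 μM compound for 30 min were heated for 3 min over 48°C-58°C. After pooling and extraction in PBS with 0.5% NP-40 at 4°C, soluble protein from a 21,000xg, 90 min spin was quantified by TMTpro 16plex LC-MS/MS with channel sums equalised. Thermal stability is expressed against control samples, from duplicates, as a log2 fold change.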

ibrutinib = compound: C=CC(=O)N1CCC[C@@H](n2nc(-c3ccc(Oc4ccccc4)cc3)c3c(N)ncnc32)C1 [ibrutinib]
Summary of the method: as §1

[1] = compound: CC(=O)c1cnc2ccc(-c3cc(Cl)c(O)c(Cl)c3)nc2c1N[C@H]1CC[C@H](CN(C)C)CC1
Summary of the method: as §1

ralimetinib = compound: CC(C)(C)Cn1c(N)nc2ccc(-c3[nH]c(C(C)(C)C)nc3-c3ccc(F)cc3)nc21 [ralimetinib]
Summary of the method: as §1

[2] = compound: CC(C)(O)CC(=O)NCCn1ccc2ncnc(Nc3ccc(Oc4cccc(C(F)(F)F)c4)c(Cl)c3)c21
Summary of the method: as §1

[3] = compound: CC(C)C1=C2N=C(C=C(N2N=C1)NCC3=CC=CC=C3)NCCCCCCN
Summary of the method: as §1

[4] = compound: CC(C)C[C@@H](C=O)NC(=O)[C@H](CC(C)C)NC(=O)[C@H](CC(C)C)NC(=O)OCc1ccccc1
Summary of the method: as §1

pinometostat = compound: CC(C)N(C[C@H]1O[C@@H](n2cnc3c(N)ncnc32)[C@H](O)[C@@H]1O)[C@H]1C[C@@H](CCc2nc3cc(C(C)(C)C)ccc3[nH]2)C1 [pinometostat]
Summary of the method: as §1

[5] = compound: CC1=C(C(CC(=O)N1)C2=CC=C(C=C2)C(F)(F)F)C(=O)NC3=C(C=C4C(=C3)C=NN4)F
Summary of the method: as §1

[6] = compound: CC1=C(C2=C(C=C1)C(=O)C3=CC=CC=C3N2CCCN)C
Summary of the method: as §1

Measured: log2 fold change

SLC30A9 (UniProt Q6PML9)
inactive: IRAK-1-4 Inhibitor I 0.006 | ibrutinib 0.012 | [1] -0.045 | ralimetinib -0.058 | [2] -0.051 | [3] -0.072 | [4] 0.095 | pinometostat -0.04 | [5] -0.033 | [6] 0.096

SLC11A2 isoform 3 (UniProt P49281)
inactive: IRAK-1-4 Inhibitor I 0.011 | ibrutinib 0.017 | [1] -0.102 | ralimetinib -0.004 | [2] 0.045 | [3] -0.172 | [4] 0.11 | pinometostat 0.037 | [5] 0.008 | [6] 0.051

SLC20A1 (UniProt Q8WUM9)
inactive: IRAK-1-4 Inhibitor I 0.054 | ibrutinib -0.014 | [1] -0.051 | ralimetinib -0.046 | [2] 0.02 | [3] 0.05 | [4] 0.114 | pinometostat 0.022 | [5] 0.022 | [6] -0.002

SLC35E1 (UniProt Q96K37)
inactive: IRAK-1-4 Inhibitor I 0.22 | ibrutinib 0.06 | [1] 0.095 | ralimetinib 0.017 | [2] -0.009 | [3] 0.011 | [4] -0.021 | pinometostat -0.06 | [5] 0.007 | [6] -0.084

SLC25A20 (UniProt O43772)
inactive: IRAK-1-4 Inhibitor I 0.014 | ibrutinib 0.033 | [1] 0.026 | ralimetinib -0.107 | [2] -0.009 | [3] 0.054 | [4] -0.025 | pinometostat -0.037 | [5] 0.019 | [6] 0.002

SLC25A24 (UniProt Q6NUK1)
inactive: IRAK-1-4 Inhibitor I 0.022 | ibrutinib 0.015 | [1] 0.012 | ralimetinib -0.045 | [2] 0.003 | [3] 0.04 | [4] 0.018 | pinometostat -0.049 | [5] -0.011 | [6] -0.004

SLC5A3 (UniProt P53794)
inactive: IRAK-1-4 Inhibitor I 0.022 | ibrutinib 0.052 | [1] -0.014 | ralimetinib 0.034 | [2] -0.004 | [3] 0.165 | [4] -0.045 | pinometostat -0.037 | [5] -0.017 | [6] 0.061

Two records picked at random from those above:
SLC5A3 (UniProt P53794)
inactive: IRAK-1-4 Inhibitor I 0.022 | ibrutinib 0.052 | [1] -0.014 | ralimetinib 0.034 | [2] -0.004 | [3] 0.165 | [4] -0.045 | pinometostat -0.037 | [5] -0.017 | [6] 0.061

SLC35E1 (UniProt Q96K37)
inactive: IRAK-1-4 Inhibitor I 0.22 | ibrutinib 0.06 | [1] 0.095 | ralimetinib 0.017 | [2] -0.009 | [3] 0.011 | [4] -0.021 | pinometostat -0.06 | [5] 0.007 | [6] -0.084

Next records follow:

SLC25A5 (UniProt P05141)
inactive: IRAK-1-4 Inhibitor I 0.046 | ibrutinib 0.007 | [1] 0.018 | ralimetinib 0.125 | [2] 0.042 | [3] 0.095 | [4] -0.116 | pinometostat -0.038 | [5] -0.044 | [6] -0.048

SLC35F2 (UniProt Q8IXU6)
inactive: IRAK-1-4 Inhibitor I 0.095 | ibrutinib 0.102 | [1] 0.009 | ralimetinib -0.103 | [2] 0.012 | [3] 0.039 | [4] 0.043 | pinometostat -0.018 | [5] -0.084 | [6] 0.062

SLC7A5 (UniProt Q01650)
inactive: IRAK-1-4 Inhibitor I -0.008 | ibrutinib 0.004 | [1] -0.06 | ralimetinib -0.148 | [2] -0.047 | [3] 0.171 | [4] -0.013 | pinometostat -0.087 | [5] -0.103 | [6] 0.014

SLC39A6 (UniProt Q13433)
inactive: IRAK-1-4 Inhibitor I -0.094 | ibrutinib -0.059 | [1] -0.018 | ralimetinib 0.001 | [2] -0.068 | [3] 0.254 | [4] -0.029 | pinometostat -0.031 | [5] -0.012 | [6] -0.049

SLC26A6 (UniProt Q9BXS9)
inactive: IRAK-1-4 Inhibitor I 0.08 | ibrutinib 0.011 | [1] -0.008 | ralimetinib -0.14 | [2] -0.055 | [3] 0.062 | [4] 0.129 | pinometostat 0.003 | [5] 0.039 | [6] -0.007

SLC7A1 (UniProt P30825)
inactive: IRAK-1-4 Inhibitor I 0.047 | ibrutinib 0.012 | [1] -0.094 | ralimetinib -0.002 | [2] -0.018 | [3] 0.054 | [4] 0.004 | pinometostat -0.022 | [5] 0.019 | [6] 0

SLC25A17 (UniProt O43808)
inactive: IRAK-1-4 Inhibitor I -0.015 | ibrutinib -0.015 | [1] 0.051 | ralimetinib -0.018 | [2] 0.008 | [3] -0.005 | [4] -0.058 | pinometostat -0.026 | [5] -0.053 | [6] -0.011

SLC25A12 (UniProt O75746)
inactive: IRAK-1-4 Inhibitor I 0.03 | ibrutinib 0.02 | [1] 0.02 | ralimetinib -0.06 | [2] -0.003 | [3] 0.05 | [4] -0.004 | pinometostat -0.015 | [5] 0.012 | [6] -0.015

SLC25A19 (UniProt Q9HC21)
inactive: IRAK-1-4 Inhibitor I 0.037 | ibrutinib 0.009 | [1] 0.049 | ralimetinib -0.032 | [2] 0.046 | [3] 0.057 | [4] -0.028 | pinometostat -0.031 | [5] 0.004 | [6] 0.02

SLC25A10 isoform 2 (UniProt Q9UBX3)
inactive: IRAK-1-4 Inhibitor I 0.009 | ibrutinib 0.007 | [1] 0.021 | ralimetinib 0.03 | [2] 0.065 | [3] 0.106 | [4] 0.034 | pinometostat -0.015 | [5] -0.002 | [6] 0.008

SLC16A1 (UniProt P53985)
inactive: IRAK-1-4 Inhibitor I 0.066 | ibrutinib 0.038 | [1] -0.082 | ralimetinib -0.109 | [2] 0.017 | [3] 0.159 | [4] -0.044 | pinometostat -0.042 | [5] 0.002 | [6] 0.111

SLC25A31 (UniProt Q9H0C2)
inactive: IRAK-1-4 Inhibitor I 0.023 | ibrutinib 0.04 | [1] -0.001 | ralimetinib -0.021 | [2] 0.012 | [3] 0.056 | [4] -0.061 | pinometostat -0.095 | [5] -0.001 | [6] 0.018

SLC25A33 (UniProt Q9BSK2)
inactive: IRAK-1-4 Inhibitor I 0.022 | ibrutinib 0.01 | [1] -0.036 | ralimetinib -0.042 | [2] -0.044 | [3] -0.013 | [4] -0.008 | pinometostat -0.007 | [5] 0.03 | [6] -0.064

SLC35C2 isoform 3 (UniProt Q9NQQ7)
inactive: IRAK-1-4 Inhibitor I 0.03 | ibrutinib 0.029 | [1] -0.11 | ralimetinib 0.04 | [2] -0.021 | [3] 0.016 | [4] 0.01 | pinometostat 0.086 | [5] -0.05

SLC4A1AP (UniProt Q9BWU0)
inactive: IRAK-1-4 Inhibitor I -0.054 | ibrutinib -0.033 | [1] -0.031 | ralimetinib -0.006 | [2] -0.062 | [3] -0.001 | [4] 0.028 | pinometostat -0.007 | [5] -0.006 | [6] -0.163

SLC1A4 (UniProt P43007)
inactive: IRAK-1-4 Inhibitor I 0.078 | ibrutinib 0.033 | [1] -0.011 | ralimetinib 0.045 | [2] -0.055 | [3] 0.146 | [4] -0.021 | pinometostat 0.009 | [5] 0.011 | [6] 0.021

SLC30A6 isoform 2 (UniProt Q6NXT4)
inactive: IRAK-1-4 Inhibitor I 0.029 | ibrutinib 0.045 | [1] 0.043 | ralimetinib -0.022 | [2] 0.061 | [3] 0.182 | [4] 0.061 | pinometostat 0.04 | [5] 0.027 | [6] -0.036

SLC25A37 (UniProt Q9NYZ2)
inactive: IRAK-1-4 Inhibitor I 0.006 | ibrutinib 0.21 | [1] -0.001 | ralimetinib 0.036 | [2] 0.035 | [3] 0.07 | [4] -0.029 | pinometostat -0.001 | [5] -0.002 | [6] 0.036

SLC10A4 (UniProt Q96EP9)
inactive: IRAK-1-4 Inhibitor I -0.224 | ibrutinib -0.105 | [1] -0.111 | ralimetinib -0.133 | [2] -0.078 | [3] -0.126 | [4] 0.053 | pinometostat 0.044 | [5] 0.125 | [6] 0.149

SLC25A3 isoform 2 (UniProt Q00325)
inactive: IRAK-1-4 Inhibitor I 0.066 | ibrutinib 0.021 | [1] 0.006 | ralimetinib -0.03 | [2] 0.058 | [3] 0.053 | [4] -0.011 | pinometostat -0.015 | [5] 0.009 | [6] 0.008

SLC38A10 (UniProt Q9HBR0)
inactive: IRAK-1-4 Inhibitor I 0.011 | ibrutinib 0.055 | [1] -0.012 | ralimetinib -0.037 | [2] -0.036 | [3] 0.166 | [4] 0.04 | pinometostat -0.026 | [5] 0.025 | [6] 0.013

SLC43A1 (UniProt O75387)
inactive: IRAK-1-4 Inhibitor I -0.036 | ibrutinib 0.021 | [1] 0.008 | ralimetinib 0 | [2] 0.018 | [3] 0.065 | [4] -0.014 | pinometostat 0 | [5] 0.046 | [6] 0.121
